Measurements: patent US11903927B2, “Combination treatment of cancer” (Scandion Oncology A/S, priority 2016, dated 2024)
At least one compound was matched to its structure with a doubt left.

Assays:
[1] = test system: tamoxifen-resistant MCF-7/LCC2 cells; test: MTT cell viability, tamoxifen resistant MCF-7/LCC2; assay type: cell-based, human; conditions: 0.1 μM Tamoxifen, 72 hours
Description: These cell lines are MCF-7/LCC2. We also established human breast cancer cell lines that are resistant to the anti-estrogen Fulvestrant as described in Brünner et al 1997 (PMID: 9270017). MCF-7 is an estrogen and progesterone receptor positive cell line. […] Subsequently, NS3728, docetaxel or combinations of the two drugs were added for 72 hours before cell viability was determined. […] Each data point was carried out in triplicate.

[2] = 5 million C6 cells, flank of Fisher rats; NS3728 40 mg/kg/day oral, temozolomide 25 mg/kg/day, alone or combined; terminated day 4 of treatment
Description: The in vivo anti-tumor effect of NS3728 on C6 glioma cells given either as monotherapy (40 mg/kg/day) or in combination with temozolomide (Temodal, 25 or 5 mg/kg/day) was tested in two separate experiments, using either the xenograft method or the subcutaneous air sac model (SAS; see Lichtenberg, J., P. J. Hjarnaa, P. E. Kristjansen, D. Hansen & L. Binderup: The rat subcutaneous air sac mode: A quantitative assay of antiangiogenesis in induced vessels Pharmacology & Toxicology, 1999, 84, 34-40).
In the first study 5 million C6 rat glioma cells were inoculated into the flank of Fisher rats.

C6 glioma cells = test: C6 glioma subcutaneous air sac (SAS) model; assay type: in vivo, rat; conditions: 2.5 million C6 cells on air sac membrane; NS3728 40 mg/kg/day oral, temozolomide 5 mg/kg/day, alone or combined; 10 days of treatment
Description: In the second study the tumour growth was retarded by inoculating only half the number of cells (2.5 million of C6 cells per animal) and making use of the subcutaneous air sac (SAS) technique. In brief, the rats were anaesthetized with CO2/O2 and 10-15 ml of air was introduced dorsally by subcutaneous injections to produce an air sac located approximately 4-5 cm behind the head. The wall of the air sac became progressively thicker with time and after 10-14 days a sufficient lining of cells with the appearance of a transparent membrane had been established. The C6 glioma cells were inoculated in the rats directly on the membrane. The treatment was started at the day of inoculation and the study was terminated on day 10 of treatment.

## CC/C(=C(\c1ccccc1)c1ccc(OCCN(C)C)cc1)c1ccccc1 [Tamoxifen, tamoxifen, reference compound]
[1]
  cell viability: no effect on the cell viability

## Cn1nnc2c(C(N)=O)ncn2c1=O [temozolomide]
[2]
  tumour growth rate / anti-tumor effect: neither NS3728 (40 mg/kg/day) nor temozolomide (25 mg/kg/day) exhibited any significant anti-tumor effect
C6 glioma cells
  tumour growth inhibition as measured by tumour weight: did not result in a significant tumour growth inhibition
